Results reported in paper PMC11612315, “GLP-1 and its derived peptides mediate pain relief through direct TRPV1 inhibition without affecting thermoregulation” (Experimental & Molecular Medicine, 2024).

Test: ELISA of total GLP-1 in serum after glucose
Type: in vivo, mouse

Compound: OC[C@H]1OC(O)[C@H](O)[C@@H](O)[C@@H]1O (some centres unmarked) [glucose]
- Total GLP-1 levels in serum (after glucose 2 g/kg i.p., n = 3–4 per time point): significant increase in GLP-1 levels
- Time of peak of serum total GLP-1 levels (postinjection of glucose 2 g/kg i.p.): 30 min
